Data taken from patent US20210230203A1, “Amphiphilic Kanamycin Compositions and Methods” (priority 2020, published 2021).
≈ marks a conversion by molar mass, not a printed value.

What was measured:
[1] = tested on: S. aureus (ATCC 43300) MRSA; experiment: microbe, parasite or virus in culture; type: cell-based; conditions: Staphylococcus aureus, read-out: Minimum inhibitory concentration
[2] = tested on: S. aureus (ATCC 33591) MRSA; experiment: microbe, parasite or virus in culture; type: cell-based; conditions: Staphylococcus aureus, read-out: Minimum inhibitory concentration

CN[C@H](CC(C)C)C(=O)N[C@H]1C(=O)N[C@@H](CC(N)=O)C(=O)N[C@H]2C(=O)N[C@H]3C(=O)N[C@H](C(=O)N[C@H](C(=O)O)c4cc(O)cc(O)c4-c4cc3ccc4O)[C@H](O)c3ccc(c(Cl)c3)Oc3cc2cc(c3O[C@@H]2O[C@H](CO)[C@@H](O)[C@H](O)[C@H]2O[C@H]2C[C@](C)(N)[C@H](O)[C@H](C)O2)Oc2ccc(cc2Cl)[C@H]1O [Vancomycin, reference compound]
MIC [1]: 2 µg/mL (≈ 1.38 µM) | MIC [2]: 2 µg/mL (≈ 1.38 µM)
